Patent US20240150455A1
Where a chain is given by its changes, count along the chain named. These are yes or no findings as the source states them, for the method shown. Some binding calls cover weakened binding; strength is not graded here.

Amino acid sequences for entries named in this document (tags omitted).
UniProt P56747: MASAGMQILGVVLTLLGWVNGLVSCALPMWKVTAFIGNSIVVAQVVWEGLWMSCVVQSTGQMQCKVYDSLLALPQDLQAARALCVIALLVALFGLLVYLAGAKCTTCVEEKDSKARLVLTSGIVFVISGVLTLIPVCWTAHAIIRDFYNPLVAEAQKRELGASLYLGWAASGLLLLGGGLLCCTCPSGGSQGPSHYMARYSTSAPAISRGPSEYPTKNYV

B1: 9H3 hotspot mutant, LCDR1 NG mutated to QG and HCDR2 DG mutated to DA (antibody, V domains shown)
VH: EVQLVESGGDLVKPGGSLKLSCAASGFTFSIYGMSWVRQSPDRRLEWVATISRDASYTYFPDSVKGRFTISRDNAKNTLYLQMSSLKSEDTAMYYCVRLGDNDRGYAMDYWGQGTSVTVSS
VL: DVLMTQTPLSLPVSLGDQASISCRSSQSVVHVQGNTYLEWYLQKPGQSPRLLIYKVSNRFPGVPDRFSGSGSGTDFTLRISRVEAEDLGVYYCFQGSHVPRTFGGGTNLEIK
B2: 9H3 hotspot mutant, LCDR1 NG mutated to QG (antibody, V domains shown)
VH: B1 VH with A55G
VL: B1 VL
B3: 9H3 hotspot mutant, LCDR1 NG mutated to NA (antibody, V domains shown)
VH: B1 VH with A55G
VL: B1 VL with Q33N, G34A
B4: 9H3 hotspot mutant, LCDR1 NG mutated to SG (antibody, V domains shown)
VH: B1 VH with A55G
VL: B1 VL with Q33S

Molecular target: human CLDN6 (Claudin 6) (human) (UniProt P56747)
Assay: binding to CLDN6-expressing cells (FIG. 6: NEC8, Bewo)

binding, binds:
B1
B2
B3
B4
